Assay results: PubChem BioAssay AID256 (DTP/NCI, 2004)
The list does not hold the whole screen: it gathers tests that were run many times, whatever their T/C, doses with no T/C, and many T/C values between a quarter and a half above the control. Other doses and runs of a compound stand elsewhere. T/C gives the treated animals as a percentage of the vehicle group. Some doses have a count of surviving animals in place of a T/C: the source files T/C as zero there, which appears to mark a toxic dose or a test without result, not a measured value. Some survivor counts are full or nearly so, which does not show that the dose was tolerated: the source hardly ever lists a survival T/C far under the control, and the zero likely stands for such cases as well. Survivors were counted at the toxicity check, usually on the fifth day, unless a day is given; later deaths do not show. Schedules are NCI's codes, taken here to give the interval after Q, in days (D) or hours (H), and the number of doses after X. Some doses were run more than once; their values stand side by side, smallest first. Where survival is the endpoint, this PubChem deposit counts one and a half times the control or more as active, and values a quarter to a half above the control carry no call in these data; other NCI protocols may use other cut-offs. Some T/C values are followed by the survivors on the day toxicity was checked, most often the fifth; where none is given, no animal had died by that day.

System: CD2F1 mice, L1210 leukemia ip, survival T/C
Test: NCI In Vivo Anticancer Drug Screen. Data for tumor model L1210 Leukemia (intraperitoneal) in CD2F1 (CDF1) mice
Details: T/C endpoint: mean survival time, higher T/C = longer survival
Outline: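 Each value reflects a quotient of treated over vehicle control outcomes in mice with a transplanted tumor.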

[1] = dose: 64.0 mg/kg/injection, schedule: Q01DX009 (ip), vehicle: saline

With `Nc1nncs1` the T/C (dose: 4.0 mg/kg/injection, schedule: Q03HX024 (ip), vehicle: alkali diluted with saline) was 130 % of control, the T/C (dose: 4.0 mg/kg/injection, schedule: Q03HX024 (ip), vehicle: saline) was 131 % of control and the T/C (dose: 8.0 mg/kg/injection, schedule: Q03HX008 (ip), vehicle: saline) was 128 % of control. For the same compound, the T/C (dose: 8.0 mg/kg/injection, schedule: Q03HX016 (ip), vehicle: saline) was 135 % of control, the T/C (dose: 16.0 mg/kg/injection, schedule: Q01DX009 (ip), vehicle: alkali diluted with saline) was 127 % of control and the T/C (dose: 16.0 mg/kg/injection, schedule: Q01DX009 (ip), vehicle: other) was 131 % of control. The T/C (dose: 16.0 mg/kg/injection, schedule: Q01DX009 (sc), vehicle: alkali diluted with saline) was 128 % of control, the T/C (dose: 16.0 mg/kg/injection, schedule: Q03HX008 (ip), vehicle: alkali diluted with saline) was 127 % of control and the T/C (dose: 16.0 mg/kg/injection, schedule: Q03HX008 (ip), vehicle: saline) was 132 % of control. For the same compound, the T/C (dose: 16.0 mg/kg/injection, schedule: Q03HX016 (ip), vehicle: alkali diluted with saline) was 140 % of control, the T/C (dose: 16.0 mg/kg/injection, schedule: Q03HX016 (ip), vehicle: saline) was 145 % of control and the T/C (dose: 16.0 mg/kg/injection, schedule: Q03HX024 (ip), vehicle: saline) was 127 % of control [9 of 10 alive]. For the same compound, the T/C (dose: 32.0 mg/kg/injection, schedule: Q01DX005 (ip), vehicle: water) was 139 % of control, the T/C (dose: 32.0 mg/kg/injection, schedule: Q01DX005 (iv), vehicle: alkali diluted with saline) was 128 % of control and the T/C (dose: 32.0 mg/kg/injection, schedule: Q01DX009 (ip), vehicle: alkali diluted with saline) was 145 % of control. For the same compound, the T/C (dose: 32.0 mg/kg/injection, schedule: Q01DX009 (ip), vehicle: saline with Tween-80) was 143 % of control, the T/C (dose: 32.0 mg/kg/injection, schedule: Q01DX009 (ip), vehicle: saline) was 131, 138, 144 % of control and the T/C (dose: 32.0 mg/kg/injection, schedule: Q01DX009 (sc), vehicle: alkali diluted with saline) was 139 % of control. For the same compound, the T/C (dose: 32.0 mg/kg/injection, schedule: Q03HX008 (ip), vehicle: alkali diluted with saline) was 132 % of control, the T/C (dose: 32.0 mg/kg/injection, schedule: Q03HX016 (ip), vehicle: alkali diluted with saline) was 148 % of control [8 of 10 alive] and the T/C (dose: 32.0 mg/kg/injection, schedule: Q03HX016 (ip), vehicle: saline) was 129 % of control [9 of 10 alive]. For the same compound, the T/C (dose: 32.0 mg/kg/injection, schedule: Q03HX024 (ip), vehicle: alkali diluted with saline) was 138 % of control, the T/C (dose: 64.0 mg/kg/injection, schedule: Q01DX005 (ip), vehicle: water) was 132 % of control and the T/C (dose: 64.0 mg/kg/injection, schedule: Q01DX005 (iv), vehicle: alkali diluted with saline) was 132 % of control. The T/C (dose: 64.0 mg/kg/injection, schedule: Q01DX009 (ip), vehicle: alkali diluted with saline) was 147 % of control, the T/C [1] was 127 % of control and the survivor count [1] was 6 of 6. The survivor count (dose: 64.0 mg/kg/injection, schedule: Q01DX009 (oral), vehicle: alkali diluted with saline) was 7 of 10, the T/C (dose: 64.0 mg/kg/injection, schedule: Q01DX009 (sc), vehicle: alkali diluted with saline) was 132 % of control and the T/C (dose: 64.0 mg/kg/injection, schedule: Q03HX008 (ip), vehicle: alkali diluted with saline) was 132 % of control [8 of 10 alive]. The T/C (dose: 64.0 mg/kg/injection, schedule: Q03HX008 (ip), vehicle: saline) was 137 % of control [7 of 10 alive], the T/C (dose: 64.0 mg/kg/injection, schedule: Q03HX016 (ip), vehicle: alkali diluted with saline) was 142 % of control [7 of 10 alive] and the survivor count (dose: 64.0 mg/kg/injection, schedule: Q03HX016 (ip), vehicle: saline) was 5 of 10. For the same compound, the survivor count (dose: 64.0 mg/kg/injection, schedule: Q03HX024 (ip), vehicle: saline) was 9 of 10, the T/C (dose: 64.0 mg/kg/injection, schedule: Q04DX003 (ip), vehicle: alkali diluted with saline) was 141 % of control and the T/C (dose: 65.0 mg/kg/injection, schedule: Q04DX003 (ip), vehicle: water) was 129 % of control. For the same compound, the T/C (dose: 108.0 mg/kg/injection, schedule: Q04DX003 (ip), vehicle: water) was 137 and 141 % of control, the T/C (dose: 128.0 mg/kg/injection, schedule: Q01DX001 (ip), vehicle: alkali diluted with saline) was 125 % of control and the survivor count (dose: 128.0 mg/kg/injection, schedule: Q01DX001 (oral), vehicle: alkali diluted with saline) was 5 of 10. The T/C (dose: 128.0 mg/kg/injection, schedule: Q01DX005 (iv), vehicle: alkali diluted with saline) was 127 % of control, the T/C (dose: 128.0 mg/kg/injection, schedule: Q01DX009 (ip), vehicle: alkali diluted with saline) was 132 % of control [9 of 10 alive] and the survivor count (dose: 128.0 mg/kg/injection, schedule: Q01DX009 (ip), vehicle: other) was 9 of 10. For the same compound, the survivor count (dose: 128.0 mg/kg/injection, schedule: Q01DX009 (ip), vehicle: saline with Tween-80) was 6 of 6, the survivor count (dose: 128.0 mg/kg/injection, schedule: Q01DX009 (ip), vehicle: saline) was 3 of 6 and 6 of 6 and the survivor count (dose: 128.0 mg/kg/injection, schedule: Q01DX009 (oral), vehicle: alkali diluted with saline) was 6 of 10. The survivor count (dose: 128.0 mg/kg/injection, schedule: Q01DX009 (oral), vehicle: other) was 8 of 10, the T/C (dose: 128.0 mg/kg/injection, schedule: Q03HX008 (ip), vehicle: alkali diluted with saline) was 146 % of control [9 of 10 alive] and the survivor count (dose: 128.0 mg/kg/injection, schedule: Q03HX008 (ip), vehicle: saline) was 6 of 10. For the same compound, the survivor count (dose: 128.0 mg/kg/injection, schedule: Q03HX016 (ip), vehicle: alkali diluted with saline) was 3 of 10, the survivor count (dose: 128.0 mg/kg/injection, schedule: Q03HX016 (ip), vehicle: saline) was 5 of 10 and the T/C (dose: 128.0 mg/kg/injection, schedule: Q04DX003 (ip), vehicle: alkali diluted with saline) was 142 % of control. For the same compound, the T/C (dose: 128.0 mg/kg/injection, schedule: Q04DX003 (ip), vehicle: other) was 143 % of control, the T/C (dose: 250.0 mg/kg/injection, schedule: Q04DX003 (ip), vehicle: water) was 144 % of control and the T/C (dose: 256.0 mg/kg/injection, schedule: Q01DX001 (ip), vehicle: alkali diluted with saline) was 132 % of control. For the same compound, the T/C (dose: 256.0 mg/kg/injection, schedule: Q01DX001 (iv), vehicle: alkali diluted with saline) was 129 % of control, the T/C (dose: 256.0 mg/kg/injection, schedule: Q01DX001 (oral), vehicle: alkali diluted with saline) was 125 % of control [8 of 10 alive] and the T/C (dose: 256.0 mg/kg/injection, schedule: Q01DX001 (sc), vehicle: alkali diluted with saline) was 127 % of control. For the same compound, the survivor count (dose: 256.0 mg/kg/injection, schedule: Q01DX009 (ip), vehicle: other) was 2 of 10, the survivor count (dose: 256.0 mg/kg/injection, schedule: Q01DX009 (ip), vehicle: saline with Tween-80) was 2 of 6 and 5 of 6 and the survivor count (dose: 256.0 mg/kg/injection, schedule: Q01DX009 (ip), vehicle: saline) was 2 of 6 and 4 of 6. For the same compound, the survivor count (dose: 256.0 mg/kg/injection, schedule: Q01DX009 (oral), vehicle: alkali diluted with saline) was 0 of 10, the survivor count (dose: 256.0 mg/kg/injection, schedule: Q01DX009 (oral), vehicle: other) was 5 of 10 and the survivor count (dose: 256.0 mg/kg/injection, schedule: Q01DX009 (sc), vehicle: alkali diluted with saline) was 4 of 10. The T/C (dose: 256.0 mg/kg/injection, schedule: Q08DX002 (ip), vehicle: alkali diluted with saline) was 129 % of control, the T/C (dose: 256.0 mg/kg/injection, schedule: Q08DX002 (ip), vehicle: other) was 128 % of control and the T/C (dose: 400.0 mg/kg/injection, schedule: Q04DX003 (ip), vehicle: water) was 130 % of control. For the same compound, the T/C (dose: 500.0 mg/kg/injection, schedule: Q04DX003 (ip), vehicle: water, evaluated on day 5) was 182 and 196 % of control, the T/C (dose: 500.0 mg/kg/injection, schedule: Q04DX003 (ip), vehicle: water, evaluated on day 30) was 153 and 160 % of control and the T/C (dose: 512.0 mg/kg/injection, schedule: Q01DX001 (ip), vehicle: alkali diluted with saline) was 134 % of control. For the same compound, the T/C (dose: 512.0 mg/kg/injection, schedule: Q01DX001 (ip), vehicle: other) was 131 % of control, the T/C (dose: 512.0 mg/kg/injection, schedule: Q01DX001 (iv), vehicle: alkali diluted with saline) was 131 % of control and the survivor count (dose: 512.0 mg/kg/injection, schedule: Q01DX001 (oral), vehicle: alkali diluted with saline) was 4 of 10. For the same compound, the T/C (dose: 512.0 mg/kg/injection, schedule: Q01DX001 (sc), vehicle: alkali diluted with saline) was 128 % of control, the survivor count (dose: 512.0 mg/kg/injection, schedule: Q01DX009 (oral), vehicle: alkali diluted with saline) was 0 of 10 and the T/C (dose: 512.0 mg/kg/injection, schedule: Q08DX002 (ip), vehicle: other) was 134 % of control. The T/C (dose: 1024.0 mg/kg/injection, schedule: Q01DX001 (ip), vehicle: alkali diluted with saline) was 134 % of control, the T/C (dose: 1024.0 mg/kg/injection, schedule: Q01DX001 (sc), vehicle: alkali diluted with saline) was 133 % of control and the survivor count (dose: 1024.0 mg/kg/injection, schedule: Q01DX009 (oral), vehicle: alkali diluted with saline) was 0 of 10. For the same compound, the T/C (dose: 1024.0 mg/kg/injection, schedule: Q08DX002 (ip), vehicle: other) was 129 % of control.
